Publication PMC8389370, “pUL21 is a viral phosphatase adaptor that promotes herpes simplex virus replication and spread” (PLoS Pathogens, 2021)
Read-outs that look alike come from different tables or passages of the source. These are yes or no findings as the source states them, for the method shown. For some of these results: Binding seen in cells or lysates may run through a third protein. Some binding calls cover weakened binding; strength is not graded here.

Amino acid sequences for entries named in this document (tags omitted).
UniProt F8RG07: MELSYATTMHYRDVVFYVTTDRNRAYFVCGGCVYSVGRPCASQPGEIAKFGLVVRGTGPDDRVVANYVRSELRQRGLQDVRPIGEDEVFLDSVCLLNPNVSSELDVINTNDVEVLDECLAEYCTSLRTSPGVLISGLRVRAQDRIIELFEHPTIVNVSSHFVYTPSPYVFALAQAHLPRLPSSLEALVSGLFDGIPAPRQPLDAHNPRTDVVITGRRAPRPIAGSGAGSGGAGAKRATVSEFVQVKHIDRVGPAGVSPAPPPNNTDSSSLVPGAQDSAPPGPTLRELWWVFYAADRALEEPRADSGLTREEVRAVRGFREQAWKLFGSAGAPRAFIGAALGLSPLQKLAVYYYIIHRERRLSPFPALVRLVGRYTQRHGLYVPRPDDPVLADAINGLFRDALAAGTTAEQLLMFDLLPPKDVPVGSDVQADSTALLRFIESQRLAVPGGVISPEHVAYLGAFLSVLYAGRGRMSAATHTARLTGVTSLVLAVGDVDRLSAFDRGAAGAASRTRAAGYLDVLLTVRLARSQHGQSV
UniProt P62140: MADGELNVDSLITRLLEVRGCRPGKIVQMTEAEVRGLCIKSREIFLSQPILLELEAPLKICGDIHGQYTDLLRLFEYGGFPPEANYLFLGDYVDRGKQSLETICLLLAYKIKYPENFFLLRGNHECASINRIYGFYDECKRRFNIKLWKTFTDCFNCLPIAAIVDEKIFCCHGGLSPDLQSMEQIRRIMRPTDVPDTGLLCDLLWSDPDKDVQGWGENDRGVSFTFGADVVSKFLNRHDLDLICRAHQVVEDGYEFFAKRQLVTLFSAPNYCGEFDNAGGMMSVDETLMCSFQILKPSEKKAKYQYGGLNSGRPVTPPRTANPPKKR
UniProt P62136: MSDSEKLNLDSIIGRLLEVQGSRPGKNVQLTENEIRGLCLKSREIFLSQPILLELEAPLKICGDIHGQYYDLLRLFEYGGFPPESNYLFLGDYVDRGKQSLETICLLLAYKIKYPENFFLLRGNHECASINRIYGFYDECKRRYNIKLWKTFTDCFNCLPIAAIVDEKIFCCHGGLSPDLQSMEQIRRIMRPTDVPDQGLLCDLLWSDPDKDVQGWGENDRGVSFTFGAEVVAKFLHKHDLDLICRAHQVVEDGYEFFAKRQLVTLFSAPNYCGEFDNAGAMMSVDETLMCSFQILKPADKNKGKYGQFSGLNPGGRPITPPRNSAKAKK

B1: ceramide-transport protein CERT, endogenous (protein, UniProt Q9Y5P4 1-624)
chain: MSDNQSWNSSGSEEDPETESGPPVERCGVLSKWTNYIHGWQDRWVVLKNNALSYYKSEDETEYGCRGSICLSKAVITPHDFDECRFDISVNDSVWYLRAQDPDHRQQWIDAIEQHKTESGYGSESSLRRHGSMVSLVSGASGYSATSTSSFKKGHSLREKLAEMETFRDILCRQVDTLQKYFDACADAVSKDELQRDKVVEDDEDDFPTTRSDGDFLHSTNGNKEKLFPHVTPKGINGIDFKGEAITFKATTAGILATLSHCIELMVKREDSWQKRLDKETEKKRRTEEAYKNAMTELKKKSHFGGPDYEEGPNSLINEEEFFDAVEAALDRQDKIEEQSQSEKVRLHWPTSLPSGDAFSSVGTHRFVQKPYSRSSSMSSIDLVSASDDVHRFSSQVEEMVQNHMTYSLQDVGGDANWQLVVEEGEMKVYRREVEENGIVLDPLKATHAVKGVTGHEVCNYFWNVDVRNDWETTIENFHVVETLADNAIIIYQTHKRVWPASQRDVLYLSVIRKIPALTENDPETWIVCNFSVDHDSAPLNNRCVRAKINVAMICQTLVSPPEGNQEISRDNILCKITYVANVNPGGWAPASVLRAVAKREYPKFLKRFTSYVQEKTAGKPILF

Columns and labels:
[1] = target: C-terminally GFP-tagged pUL21 (pUL21-GFP), wild type (HSV-1 strain KOS) (UniProt F8RG07); assay: co-IP; HEK293T cells transfected with GFP-tagged bait, lysed 24 h post-transfection, captured on GFP affinity resin (GFP-TRAP), SDS-PAGE and immunoblot of endogenous partners
[2] = target: full-length C-terminally hexahistidine-tagged pUL21 (pUL21-H6) (HSV-1 strain KOS) (UniProt F8RG07); assay: SEC-MALS; 100 μL of 1 mg/mL UL21-H6 on Superdex 200 10/300, 20 mM Tris pH 7.5, 200 mM NaCl, 1 mM DTT, room temperature; both purified
[3] = target: C-terminally GFP-tagged pUL21 (pUL21-GFP), wild type (HSV-1 strain KOS) (UniProt F8RG07); assay: co-IP; HEK293T cells transfected with GFP-tagged bait, lysed 24 h post-transfection, captured on GFP affinity resin (GFP-TRAP), SDS-PAGE and immunoblot of endogenous partners; remark: listed apart in the source

Row | Molecule | binding [1] | also measured
1 | PP1 catalytic subunit isoform β (from UniProt P62140 1-327) (enzyme) | binds | 
2 | full-length C-terminally hexahistidine-tagged pUL21 (pUL21-H6) (from UniProt F8RG07 1-535) |  | binding [2]: no binding (tested: 1 mg/mL injected)
3 | PP1 catalytic subunit isoform α (from UniProt P62136 1-330) (enzyme) | binds | 
4 | B1 |  | binding [3]: binds
